Some of the results follow.

The assay concerns the target T1, OsSMF1 (Oryza sativa, UniProt Q6ZLB0 1-436).
T1 sequence: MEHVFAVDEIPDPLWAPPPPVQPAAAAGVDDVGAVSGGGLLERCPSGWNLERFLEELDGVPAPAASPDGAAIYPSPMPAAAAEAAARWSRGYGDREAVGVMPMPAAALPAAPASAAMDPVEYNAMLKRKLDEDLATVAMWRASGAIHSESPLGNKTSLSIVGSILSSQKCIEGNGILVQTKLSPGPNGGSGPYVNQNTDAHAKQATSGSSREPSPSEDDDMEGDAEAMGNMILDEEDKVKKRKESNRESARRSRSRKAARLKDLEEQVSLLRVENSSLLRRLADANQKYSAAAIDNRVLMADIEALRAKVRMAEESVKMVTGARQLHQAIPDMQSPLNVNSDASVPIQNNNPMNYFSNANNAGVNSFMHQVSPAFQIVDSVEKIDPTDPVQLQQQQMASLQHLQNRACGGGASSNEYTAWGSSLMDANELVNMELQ
As to the kind of experiment: protein-binding microarray (RPBM); PBS, 2% BSA, 51.3 ng/ul salmon testes DNA, 50 uM zinc acetate, 200 nM TF, 25 C, 1 h; high values mean tight binding. Conditions: protein: recombinant; tags: N-terminal polyhistidine and DsRed monomer fusion (pET32a); chain copies: 2; label: CyDye5-dUTP incorporated in the synthesized complementary strand; 3' TTTTT single-stranded linker to array surface; dsDNA, one strand shown. In a few lines:
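Transcription factors were each fused at the N-terminus to a polyhistidine tag plus DsRed and expressed in E. coli BL21-CodonPlus before Ni–NTA purification. Binding to a double-stranded custom Agilent array was carried out with 200 nM protein at 25 °C for 1 h in PBS, 2% BSA, salmon testes DNA and 50 µM zinc acetate. The binding signal is per-feature fluorescence intensity, in arbitrary units, on an Axon 4000B scanner.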
On to “GTTTGCGAGGAATAGCGGGAACGATCCGCGCCACCACGAACGGAGTCACCTAGTGCAG”, for which the binding signal was 18000 fluorescence intensity (a.u.). Then “AAGATTGCCACGTAACCGAACTGCTGCCACGCGGCCAATCCGGAGTCACCTAGTGCAG”, with 15900 fluorescence intensity (a.u.); and “AGTTTTCCCAACGTCAGAGGATCGTGACGTGGACGTGAGGCGGAGTCACCTAGTGCAG”, with 27500 fluorescence intensity (a.u.). Then “TAAACACAGCCTGATGCAAAACCTCCCTGAACTCTGTACTCGGAGTCACCTAGTGCAG”, with 24700 fluorescence intensity (a.u.); and “CATCGCCGTCGCCGATTCTCCCTTGTCTTCCTCCTCTTCGCGGAGTCACCTAGTGCAG”, with 3270 fluorescence intensity (a.u.). Then “GCCCGCAACCCGCTGCCACGCTGCCCACCGCCGCTGCGCCCGGAGTCACCTAGTGCAG”, with 4640 fluorescence intensity (a.u.); and “AACACCAATCACCACGTACGCCGACCAACCCCATCCACCCCGGAGTCACCTAGTGCAG”, with 6870 fluorescence intensity (a.u.); and “GATGAATCCGCCGAGTGTGTTATTGATTGTATGATTTGGACGGAGTCACCTAGTGCAG”, with 3660 fluorescence intensity (a.u.).

Turning to “ATCGAATGATCTAACGGCTCACACACTCCCACGCACTTTGCGGAGTCACCTAGTGCAG”, the binding signal is 3290 fluorescence intensity (a.u.). Then “GGACCTAAATCTCTTCAAATGACACGACATCTTTACAAATCGGAGTCACCTAGTGCAG”, with 5600 fluorescence intensity (a.u.). Next, “GATGTCGCTGCCGCGCCTACCGGCTGTCGTCATCGCTGCCCGGAGTCACCTAGTGCAG”: 4710 fluorescence intensity (a.u.); “TATTGCCATGTAGGACCAAAACCAACGTGGATTGAAGCGGCGGAGTCACCTAGTGCAG”: 4740 fluorescence intensity (a.u.). On to “CGGCTGCTGCTCGCCGTGCCACGTGGCACTCGACTGGCGCCGGAGTCACCTAGTGCAG”, for which the binding signal was 26700 fluorescence intensity (a.u.).

As for “AGTTTAGTACTTCCATATGTTAAACACATTAAATTTATGGCGGAGTCACCTAGTGCAG”, the binding signal is 31500 fluorescence intensity (a.u.). Take “TCAACAATCAAGAAAATGGCACCAGCAATTGAAAGAAGTGCGGAGTCACCTAGTGCAG”: the binding signal was 3480 fluorescence intensity (a.u.).

Take “GTGGGGAAGAGGAGGCAGAGGACGCGATGCTGTTTTGATACGGAGTCACCTAGTGCAG”: the binding signal was 3210 fluorescence intensity (a.u.). Next, “GCAACGCGACCATGTTCTCTCCCGCCACGGGGCCGCGCGCCGGAGTCACCTAGTGCAG”: 3220 fluorescence intensity (a.u.); “CAGTTGGCGATCGACGTACGTTTACCTCCTGACGCCATTGCGGAGTCACCTAGTGCAG”: 3160 fluorescence intensity (a.u.); “ATCTTCATTGGCCGGCGTGTGATCGTCGTCATACACTCGTCGGAGTCACCTAGTGCAG”: 4750 fluorescence intensity (a.u.). On to “CTTGCAGAAAGGAACAATGTTGTCATAAGAATGTTCAGTACGGAGTCACCTAGTGCAG”, for which the binding signal was 3360 fluorescence intensity (a.u.). As to “TTCTGATCCGGATCTCCCACGTCAAGATCAGACTATACCTCGGAGTCACCTAGTGCAG”, the binding signal was 3280 fluorescence intensity (a.u.). Regarding “CATTGAAATATGTCATATTAGTTATTTATGTTGTTCGTTTCGGAGTCACCTAGTGCAG”, the binding signal was 4020 fluorescence intensity (a.u.). Next, “CCTGTGCCCATATCCTGTTGTTTCCAGTAGACATCCTTGGCGGAGTCACCTAGTGCAG”: 3160 fluorescence intensity (a.u.); “CGACCCAAAGGGATTGCATGCGTTGTCTGTGTCACCAGATCGGAGTCACCTAGTGCAG”: 5270 fluorescence intensity (a.u.); “TGGGGCCACGAGCGTGCCACGCCATCATCAAACACGTTTCCGGAGTCACCTAGTGCAG”: 7710 fluorescence intensity (a.u.). Then “ACGCGGTTCAGGACCGGCAGGTGGTGAACGCCATTGCCATCGGAGTCACCTAGTGCAG”, with 3430 fluorescence intensity (a.u.); and “TGCCTGTGTGTGTCACTCTTCTCATGATCTCATCACACCACGGAGTCACCTAGTGCAG”, with 4130 fluorescence intensity (a.u.).

With “CGTGTCCTTCTGGCTCGTCCGTGACGACGATGACGACGACCGGAGTCACCTAGTGCAG”, the binding signal is 3580 fluorescence intensity (a.u.). Next, “TCTGCTTACCCTTCACGACGGCCACCTGTCACCATCATAGCGGAGTCACCTAGTGCAG”: 4920 fluorescence intensity (a.u.); “TGGTACCAAGCTGACATGGATATTGTCGTTGCTGCTCATCCGGAGTCACCTAGTGCAG”: 4260 fluorescence intensity (a.u.); “GGAGAGCATAGCTTAGGATAACAGTACCAACCAGTTAACTCGGAGTCACCTAGTGCAG”: 3340 fluorescence intensity (a.u.). Next, “ATTCTCCGGTCGCCACGACTGCTTCGTGAACAATCTGCATCGGAGTCACCTAGTGCAG”: 4730 fluorescence intensity (a.u.); “TGTTTTCTAATATTTACAATCAGATCCCTTGAGTGAGTCACGGAGTCACCTAGTGCAG”: 4150 fluorescence intensity (a.u.). In the case of “GTGAAGCCATCCAGCTGTGTGCCACGTCAAGATGAGTCCACGGAGTCACCTAGTGCAG”, the binding signal was 19900 fluorescence intensity (a.u.).

For “AGTACATTTTGCATGGACCATGTGAGGAGCCACGTATTCGCGGAGTCACCTAGTGCAG”, the binding signal was 8620 fluorescence intensity (a.u.). Take “CAGAAAATCCTCCTGCTCATGGCACAAATTGGGCTGCAGACGGAGTCACCTAGTGCAG”: the binding signal is 27100 fluorescence intensity (a.u.).

For “TCCGTATATCCGATGTGACACGTCAAAACTTTTCACCCCTCGGAGTCACCTAGTGCAG”, the binding signal was 13000 fluorescence intensity (a.u.). Then “TGAAACGACTCGTGTATATCTCTCCTCACCTTGGCGCGCCCGGAGTCACCTAGTGCAG”, with 5570 fluorescence intensity (a.u.); and “TTCTATAGTTCAGTTAGAGTGGGGATAGGAAAAGGAAAGGCGGAGTCACCTAGTGCAG”, with 28500 fluorescence intensity (a.u.).

On to “TATTAATCGTGGACTCTCTTTCCTTCCAGAATTTTAAGGACGGAGTCACCTAGTGCAG”, for which the binding signal was 3840 fluorescence intensity (a.u.). With “TGTGTCTAACGTACGCCAGCGCTTATCGCCTGCTCCATCCCGGAGTCACCTAGTGCAG”, the binding signal is 3200 fluorescence intensity (a.u.). Then “GTCCTTGAATCTGACGTCGCCGGCTTGATGCGCGCTCCCTCGGAGTCACCTAGTGCAG”, with 4890 fluorescence intensity (a.u.); and “AAGAAGAAGAGTATGAAGCTGTGACGTGGAGGGCTGACCGCGGAGTCACCTAGTGCAG”, with 24600 fluorescence intensity (a.u.); and “AGCACAAGTCCACTGCGTGCGTGCGAGCGATGACTCCGATCGGAGTCACCTAGTGCAG”, with 4240 fluorescence intensity (a.u.). With “ACCGTGCGTGACAAATGATGCCAACATGTATGAAGCTCTGCGGAGTCACCTAGTGCAG”, the binding signal is 3920 fluorescence intensity (a.u.). With “ACCCCAACCAACTGACGCAACGGCCCCACCTCCCTGTCCCCGGAGTCACCTAGTGCAG”, the binding signal was 5490 fluorescence intensity (a.u.). Then “AAGCAACACAGTTTTCTCCATGGCCCCATGGCGCCAATAACGGAGTCACCTAGTGCAG”, with 3170 fluorescence intensity (a.u.); and “AGGGCTCTGAAAATAAGTCCAAAGTAATGGTGGCATGATGCGGAGTCACCTAGTGCAG”, with 4250 fluorescence intensity (a.u.).

In the case of “TTTTAGTGTGACTGCATTCCTGGCGTCATCAGAAAATGAACGGAGTCACCTAGTGCAG”, the binding signal was 3750 fluorescence intensity (a.u.). Regarding “CGCCAGCGCCAGCGTCACCATCTTTCTTTTCCGATCACACCGGAGTCACCTAGTGCAG”, the binding signal is 4990 fluorescence intensity (a.u.). Next, “ACCCCACGTACACCCCATGCTTCGTGACCGTGTGAGCTCTCGGAGTCACCTAGTGCAG”: 3340 fluorescence intensity (a.u.); “AGGTGGTGTTTGGTTGGAGGGGCTAAAGTGGGGCTAAACTCGGAGTCACCTAGTGCAG”: 5760 fluorescence intensity (a.u.); “CCACCCACCACTTCTTCTCTACCTAGCTCTCTCTTTCTCGCGGAGTCACCTAGTGCAG”: 21400 fluorescence intensity (a.u.).

As for “ACTGCCCCTCCTAGCCAAAGCCACCTCATCCTCCTCTTCACGGAGTCACCTAGTGCAG”, the binding signal is 5730 fluorescence intensity (a.u.).

For the origin of these results see publication PMC7819943, “Rice protein-binding microarrays: a tool to detect cis-acting elements near promoter regions in rice”.
